Publication PMC10105949
No constants are given. Whether binding was seen depends on the method and setting. Binding seen in cells or lysates may run through a third protein. Some binding calls cover weakened binding; strength is not graded here. Where a sequence is shown, tags or fusion partners need not be part of it. One block for each binder: values may come before it.

Assays:
[1] = biological target: T1, Hydroxy-3-methylglutaryl coenzyme A reductase (HMGCR) (human (endogenous in A549/DDP)) (UniProt P04035); assay: co-IP; Flag-SIAH1 transfected into A549/DDP cells; RIPA lysates; IP of Flag-SIAH1 or of HMGCR (normal IgG as control) with protein A/G PLUS-Agarose beads, 4 h at 4 °C; Western blot against HMGCR and SIAH1
T1 sequence: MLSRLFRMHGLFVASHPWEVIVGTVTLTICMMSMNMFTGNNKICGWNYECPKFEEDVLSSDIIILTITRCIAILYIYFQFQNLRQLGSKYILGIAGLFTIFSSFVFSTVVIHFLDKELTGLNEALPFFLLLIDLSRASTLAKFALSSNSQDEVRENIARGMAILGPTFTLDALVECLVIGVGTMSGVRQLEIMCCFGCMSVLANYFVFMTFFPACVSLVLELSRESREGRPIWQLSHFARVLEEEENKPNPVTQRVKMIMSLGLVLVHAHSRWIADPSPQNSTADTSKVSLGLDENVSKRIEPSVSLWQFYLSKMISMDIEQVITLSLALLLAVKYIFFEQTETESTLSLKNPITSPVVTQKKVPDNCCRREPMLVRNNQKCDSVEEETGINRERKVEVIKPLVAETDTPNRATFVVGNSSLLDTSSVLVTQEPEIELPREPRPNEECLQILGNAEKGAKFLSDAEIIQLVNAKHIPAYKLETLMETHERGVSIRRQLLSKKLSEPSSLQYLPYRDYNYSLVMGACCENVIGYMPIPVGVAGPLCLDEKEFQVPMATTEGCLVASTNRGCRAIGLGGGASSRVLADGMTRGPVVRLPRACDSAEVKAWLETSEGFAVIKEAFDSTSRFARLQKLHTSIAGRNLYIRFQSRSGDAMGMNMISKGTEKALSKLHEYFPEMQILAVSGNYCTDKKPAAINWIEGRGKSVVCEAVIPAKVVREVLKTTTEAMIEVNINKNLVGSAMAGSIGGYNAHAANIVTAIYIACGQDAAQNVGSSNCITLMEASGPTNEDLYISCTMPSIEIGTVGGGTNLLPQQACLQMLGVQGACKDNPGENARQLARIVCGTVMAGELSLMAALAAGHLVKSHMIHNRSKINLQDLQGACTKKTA

Flag-SIAH1 = biological target: T2, Flag-SIAH1 (UniProt Q8IUQ4); assay: as above
T2 sequence: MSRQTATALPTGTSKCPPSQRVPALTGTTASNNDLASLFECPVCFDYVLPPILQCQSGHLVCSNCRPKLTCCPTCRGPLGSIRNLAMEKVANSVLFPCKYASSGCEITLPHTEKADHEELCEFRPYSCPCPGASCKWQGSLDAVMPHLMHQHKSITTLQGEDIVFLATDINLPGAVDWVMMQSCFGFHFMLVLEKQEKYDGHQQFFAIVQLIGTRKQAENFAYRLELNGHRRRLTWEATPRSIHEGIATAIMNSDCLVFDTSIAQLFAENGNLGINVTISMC

binding [1]: binds
B1: Flag-SIAH1 (enzyme, UniProt Q8IUQ4 1-282)
chain: T2 sequence

binding (Flag-SIAH1): binds
B2: Hydroxy-3-methylglutaryl coenzyme A reductase (HMGCR) (enzyme, UniProt P04035 1-888)
chain: T1 sequence
